Results from article PMC5079630.
Results are given in words; binding and its absence hold for the method and conditions named. In cells and extracts the contact can be indirect. Some results given as binding are weak or reduced against the parent protein; the word gives no strength.

The chains behind the UniProt entries cited, without tags or fusion partners.
UniProt P52294: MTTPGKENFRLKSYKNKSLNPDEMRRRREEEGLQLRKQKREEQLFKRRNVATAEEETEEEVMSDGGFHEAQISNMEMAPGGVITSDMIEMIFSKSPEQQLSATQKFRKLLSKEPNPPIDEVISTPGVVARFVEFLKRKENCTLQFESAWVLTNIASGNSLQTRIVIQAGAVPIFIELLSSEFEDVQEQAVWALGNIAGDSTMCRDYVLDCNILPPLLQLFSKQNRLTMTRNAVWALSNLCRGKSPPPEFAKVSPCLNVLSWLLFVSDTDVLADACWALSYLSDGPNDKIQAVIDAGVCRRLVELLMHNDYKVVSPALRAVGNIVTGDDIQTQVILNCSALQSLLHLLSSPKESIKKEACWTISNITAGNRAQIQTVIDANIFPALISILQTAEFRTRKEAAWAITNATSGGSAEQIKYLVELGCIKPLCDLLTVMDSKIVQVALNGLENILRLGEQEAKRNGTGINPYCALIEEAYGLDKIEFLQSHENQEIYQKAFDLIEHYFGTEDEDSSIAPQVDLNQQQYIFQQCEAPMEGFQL
UniProt P52630: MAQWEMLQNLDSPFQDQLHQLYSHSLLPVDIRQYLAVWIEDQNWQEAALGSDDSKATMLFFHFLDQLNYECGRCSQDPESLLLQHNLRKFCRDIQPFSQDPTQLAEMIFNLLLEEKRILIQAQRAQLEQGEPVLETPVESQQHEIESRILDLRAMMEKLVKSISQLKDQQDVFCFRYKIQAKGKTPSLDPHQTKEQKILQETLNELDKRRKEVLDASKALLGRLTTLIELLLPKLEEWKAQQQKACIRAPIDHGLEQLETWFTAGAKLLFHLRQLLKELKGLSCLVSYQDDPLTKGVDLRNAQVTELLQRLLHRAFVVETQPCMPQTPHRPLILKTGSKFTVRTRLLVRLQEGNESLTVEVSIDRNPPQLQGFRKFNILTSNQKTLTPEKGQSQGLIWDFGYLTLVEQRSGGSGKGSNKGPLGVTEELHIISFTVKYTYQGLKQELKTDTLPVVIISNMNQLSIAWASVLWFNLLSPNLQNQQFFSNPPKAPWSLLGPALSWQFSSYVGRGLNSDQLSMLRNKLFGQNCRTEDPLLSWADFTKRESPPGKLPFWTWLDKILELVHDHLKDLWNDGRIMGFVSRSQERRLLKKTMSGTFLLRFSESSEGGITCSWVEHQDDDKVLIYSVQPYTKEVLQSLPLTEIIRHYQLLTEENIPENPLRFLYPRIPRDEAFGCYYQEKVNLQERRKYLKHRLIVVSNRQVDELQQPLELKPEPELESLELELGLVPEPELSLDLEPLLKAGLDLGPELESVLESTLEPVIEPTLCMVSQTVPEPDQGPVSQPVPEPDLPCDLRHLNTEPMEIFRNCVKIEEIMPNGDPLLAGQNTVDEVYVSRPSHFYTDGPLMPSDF

Target: FLAG-tagged importin-α5 (UniProt P52294)
Experiment: co-IP; anti-FLAG M2 magnetic beads; extracts of HEK 293T cells cotransfected with FLAG-tagged importin-α5 and YFP-tagged STAT1 or STAT1-Y701F; cells treated with IFN-β for 1 h; immunoblot

For “endogenous STAT2, activated (IFN-β-treated HEK 293T cells) (from UniProt P52630 1-851)”, the binding was “binds”.
